# Reference: PMC11596630 (Molecules, 2024)
# Tested on: SH-SY5Y cells
# Test: Cytotoxicity MTS assay, SH-SY5Y
# Assay type: cell-based
# Details: ratio of toxicity towards neuronal cells and inhibition potency towards BChE
# Protocol: HepG2 and HEK293 cells were grown in EMEM and SH-SY5Y in DMEM-F12, as described previously, and cell cultivation and maintenance were conducted according to standard protocol. All media and supplements were purchased from Sigma-Aldrich, Steinheim, Germany.
# The cytotoxic profiles of tested compounds were determined by measuring the succinate dehydrogenase mitochondrial activity of exposed cells. The commercially available MTS detection reagent assay (CellTiter 96® AQueous One Solution Cell Proliferation Assay, Promega, Madison, WI, USA) was used. The procedure followed a previously described protocol. Cells were exposed to compounds in a concentration range of 0.01–1000 µM for 24 h. DMSO (20%) was used as positive control to validate the method. After desired time of incubation at 37 °C in a 5% CO2 atmosphere, cells were washed with PBS buffer and 100 µL of EMEM or DMEM medium and 20 µL of MTS were added in each well, incubated up to 1 h after which the absorbance was read at 492 nm on an Infinite M200PRO plate reader (Tecan Austria GmbH, Salzburg, Austria). Data are presented as percentages of the inhibited cells to control untreated cells, i.e., the percentage of cytotoxicity.
row,Compound,IC50 (SH-SY5Y)/Ki(BChE)
1,CCN(CC)Cc1cc(Nc2ccnc3cc(C(F)(F)F)ccc23)ccc1O [Compound 2],≥ 50
2,CCN(CC)Cc1cc(Nc2ccnc3ccccc23)ccc1O [Compound 6],≥ 50
3,CCN(CC)Cc1cc(Nc2ccnc3ccc(C(F)(F)F)cc23)ccc1O [Compound 9],≥ 50
4,CCN(CCO)Cc1cc(Nc2ccnc3cc(Cl)ccc23)ccc1O [Compound 14],≥ 50
